Values of other authors, collected in patent US11051972B1 (priority 2020, dated 2021).
At least one structure is not confirmed: it was looked up by name or label, or the drawing left a doubt.

System: coronavirus
Conditions: monkeys, announced by NIH [17,18,20]

CCC(CC)COC(=O)[C@H](C)N[P@](=O)(OC[C@H]1O[C@@](C#N)(c2ccc3c(N)ncnn23)[C@H](O)[C@@H]1O)Oc1ccccc1 [Remdesevir]
effectiveness against coronavirus: effective
